# Test results published in PubChem BioAssay AID445 (National Center for Advancing Translational Sciences (NCATS), 2006).
# Some of the results follow. Shown are side measurements of this screen, not its main read-out; they come without a call. Most of these compounds were active or inconclusive in the main read-out, so they are no random draw. Potencies come from curve fits of mixed quality, noted in brackets.
# Assay: IkB Signaling
# Settings: ABC-DLBCL IkBa-CBG/CBR dual luciferase ratio (green luciferase fused to IkBa over red control in OCI-Ly3 lymphoma cells), 4 h
# Summary of the method: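 In this assay, an IκBα–CBG68 fusion accumulates when IKK-driven degradation is blocked; native CBR normalizes for cell number. OCI-Ly3 cells were treated 4 h with compound and doxycycline, then green and red light read after Chroma-Glo addition.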
# [1] = measured here: control luc red channel unless noted
# [2] = measured here: IkB-luc green channel
# [3] = measured here: control luc red channel
compound,measurement,setting,value
COCCNC(=O)Cn1c(=O)c2cccn2c2ccc(F)cc21,AC50,[1],"15.8 µM [falling, single point]"
CN(Cc1ccccc1)S(=O)(=O)c1ccc2c(c1)n(C)c(=O)n2C,AC50,[1],"25.1 µM [falling, partial curve]"
Cc1cc(C)cc(Oc2nc3ccccn3c(=O)c2/C=C(\C#N)c2nc3ccccc3s2)c1,AC50,[1],"6.31 µM [falling, single point]"
Cn1c(=O)cc(SCC(=O)N2CCN(c3ccccc3F)CC2)c2ccc(Cl)cc21,AC50,[1],"15.8 µM [falling, partial curve]"
Cc1ccccc1OCCSc1nc2ccc(NC(=O)c3cccs3)cc2s1,AC50,[1],"15.8 µM [falling, partial curve]"
CCn1nc(-c2ccccc2)c(-c2ccccc2)c(C(=O)Nc2ccc(NC(C)=O)cc2)c1=O,AC50,[1],"20 µM [falling, partial curve]"
Cc1ccc(-c2csc(=Nc3ccccc3)n2Cc2ccc3c(c2)OCO3)cc1,AC50,[1],"12.6 µM [falling, partial curve]"
CCOC(=O)C1CCCN(C(=O)Cn2ncc3c4ccccc4n(Cc4ccccc4)c3c2=O)C1 (stereo not given),AC50,[1],"20 µM [falling, single point]"
COc1ccccc1NC(=O)c1cc2c(C)nn(-c3ccccc3)c2s1,AC50,[1],"31.6 µM [falling, single point]"
COc1ccc(NC(=O)c2sc3nc(C(F)(F)F)cc(C)c3c2N)cc1OC,AC50,[1],"39.8 µM [rising, partial curve]"
Cc1ccc(NC(=O)c2nc(S(C)(=O)=O)ncc2N(Cc2ccco2)Cc2cccs2)cc1C,AC50,[1],"7.94 µM [falling, partial curve]"
Cc1cccc(NC(=O)CCNS(=O)(=O)c2ccc3c(c2)CCN3C(=O)C2CC2)c1,AC50,[1],"0.2 µM [falling, full curve, poor fit]"
Cc1ccc(NC(=O)Cn2cc(C(=O)C3CCCCC3)c3ccccc32)cc1,AC50,[1],"15.8 µM [falling, partial curve]"
CCOc1ccc(-c2cc(CCCC(=O)NCCc3cc(OC)c(OC)c(OC)c3)no2)cc1,AC50,[1],"3.98 µM [falling, partial curve]"
CCOc1ccc(NC(=O)Cn2c(=O)n(CCCS(=O)(=O)C3CCCCC3)c(=O)c3ccccc32)cc1,AC50,[1],"39.8 µM [falling, single point]"
COC(=O)c1c(C)oc2ccc(N(C(=O)c3ccncc3)S(=O)(=O)c3cc(C)ccc3C)cc12,AC50,[1],"7.94 µM [falling, partial curve]"
Cc1ccc(C(=O)Nc2ccccc2)cc1S(=O)(=O)Nc1ccccc1,AC50,[1],"39.8 µM [falling, single point]"
O=S(=O)(/N=S1/CC=CCN1S(=O)(=O)c1ccccc1)c1ccccc1 (stereo not given),AC50,[2],"39.8 µM [rising, single point]"
same,AC50,[3],"39.8 µM [rising, single point]"
Cc1ccc(-n2ncc3c(N4CCC(Cc5ccccc5)CC4)ncnc32)cc1C,AC50,[1],"12.6 µM [falling, partial curve]"
COCCCn1c(-c2ccc(S(=O)(=O)N3CCOCC3)cc2)csc1=Nc1ccccc1,AC50,[1],"10 µM [falling, partial curve]"
O=C(NCCN1CCCCC1)c1ccc(Cn2c(SCc3ccccc3)nc3cccnc32)cc1,AC50,[1],"25.1 µM [falling, single point]"
COc1ccc(CNC(=O)c2cc3sccc3n2Cc2ccc(C)cc2)cc1,AC50,[1],"25.1 µM [falling, partial curve]"
Nc1nnnn1/N=C/C(Br)=C/c1ccccc1,AC50,[2],"0.631 µM [rising, full curve, poor fit]"
same,AC50,[3],"6.31 µM [falling, partial curve]"
Cc1ccc(NC(=O)C2CCN(c3nc(-c4ccc(C(C)C)cc4)no3)CC2)c(Cl)c1,AC50,[1],"15.8 µM [falling, partial curve]"
Cc1nn(Cc2ccc(Cl)cc2Cl)c(C)c1NC(=O)c1nc2n(n1)C(C(F)F)CC(C)N2 (stereo not given),AC50,[1],"12.6 µM [falling, partial curve]"
Cc1ccc2c(CNCc3ccc(C)o3)c(C(=O)O)n(Cc3ccc(F)cc3)c2c1,AC50,[1],"25.1 µM [falling, partial curve]"
O=C(c1ccc2c(c1)N(Cc1ccc(Cl)cc1)C(=O)c1ccccc1S2=O)N1CCCCC1 (stereo not given),AC50,[1],"25.1 µM [falling, partial curve]"
O=C(CSc1ccccc1)N1CCc2c([nH]c3ccccc23)C1c1ccc(Cl)cc1 (stereo not given),AC50,[1],"6.31 µM [falling, partial curve]"
COc1ccc(NC(=O)Cn2nc3c(cc2=O)CCCC3)cc1Cl,AC50,[1],"0.1 µM [rising, single point]"
O=C(NCc1ccc(Cl)cc1)c1cc2ccc3cccnc3c2[nH]1,AC50,[1],"31.6 µM [falling, partial curve, poor fit]"
CC(C)c1ccc(Cc2cn3cc(-c4cc5ccccc5oc4=O)nc3s2)cc1,AC50,[1],"794 nM [rising, full curve] [measured here: IkB-luc green channel]"
COc1ccc(OC)c(C2=NS(=O)(=O)N(C)C(C(=O)Nc3ccc(C(C)=O)cc3)=C2)c1,AC50,[1],"10 µM [falling, partial curve]"
Cc1cccc(C)c1NC(=O)NCCCN1CCN(c2ccccc2)CC1,AC50,[1],"39.8 µM [falling, single point]"
CNC(=O)C1CCC(Cn2c(=O)c3sccc3n(CC(=O)NCc3ccc(C)cc3)c2=O)CC1 (stereo not given),AC50,[1],"7.94 µM [falling, full curve, poor fit]"
Cc1ccc2cc3cc(C(=O)N4CC(C)CC(C)C4)oc3nc2c1 (stereo not given),AC50,[1],"20 µM [falling, single point]"
Cc1ccc(C)c(NC(=O)CCCn2c(C)c3cnn(-c4ccccc4)c(=O)c3c2C)c1,AC50,[1],"10 µM [falling, partial curve]"
Cc1ccccc1C(=O)Nc1sc2c(c1C(=O)O)CCC(C(C)(C)C)C2 (stereo not given),AC50,[1],"10 µM [falling, partial curve]"
O=C(CSc1nc2c([nH]c3ccccc32)c(=O)n1-c1ccccc1)N1CCCc2ccccc21,AC50,[1],"31.6 µM [rising, partial curve]"
COc1ccc(NC(=O)c2ccco2)cc1NC(=O)c1ccc(C)cc1,AC50,[1],"0.501 µM [rising, partial curve]"
Cc1cccc(OCc2nc(C#N)c(NCc3ccc4c(c3)OCO4)o2)c1,AC50,[2],"31.6 µM [falling, single point]"
same,AC50,[3],"25.1 µM [falling, partial curve]"
Cc1ccc(NC(=O)c2cc(S(=O)(=O)NC3CCCCCC3)ccc2F)cc1F,AC50,[1],"15.8 µM [falling, partial curve]"
COc1ccc2[nH]cc(CCN=C(NC(=O)c3cccc(Cl)c3)Nc3nc(C)cc(C)n3)c2c1,AC50,[1],"20 µM [falling, partial curve]"
CC(NC(=O)COc1ccccc1)C(=O)OCC(=O)c1cc2ccccc2o1 (stereo not given),AC50,[1],"12.6 µM [falling, partial curve]"
O=C(CSc1nc2c([nH]c3ccccc32)c(=O)n1-c1ccccc1)NCc1ccc(F)cc1,AC50,[1],"39.8 µM [falling, single point]"
CN1CCN(c2oc(COc3ccc(-c4ccccc4)cc3)nc2C#N)CC1,AC50,[1],"20 µM [falling, partial curve]"
O=C(CN1C(=O)C2(SCC(=O)N2c2ccccc2)c2ccccc21)Nc1ccccc1C(F)(F)F (stereo not given),AC50,[1],"39.8 µM [falling, single point]"
O=S(=O)(c1cccc(-c2nnc(SC(F)F)n2-c2ccccc2)c1)N1CCCCC1,AC50,[1],"20 µM [falling, single point]"
COc1ccc(C(=O)c2cnc3ccc(C)cc3c2S(=O)(=O)c2ccccc2)cc1,AC50,[1],"1.58 µM [falling, full curve]"
Cn1cnnc1SCC(=O)c1cc2ccccc2oc1=O,AC50,[1],"12.6 µM [falling, partial curve]"
Cc1ccc(CN2C(=O)C(O)(CC(=O)c3ccc(C)cc3)c3ccccc32)cc1 (stereo not given),AC50,[2],"15.8 µM [rising, partial curve]"
same,AC50,[3],"25.1 µM [falling, partial curve]"
CCN(C(=O)CCS(=O)(=O)c1ccc2c(c1)oc(=O)n2C)c1ccc(OC)cc1,AC50,[1],"20 µM [falling, partial curve, poor fit]"
Cc1[nH]c2ccc(C(=O)Nc3ccc(F)cc3)cc2c1C,AC50,[1],"39.8 µM [falling, single point]"
Cc1ccccc1CN1C(=O)c2ccccc2S(=O)c2ccc(C(=O)NCc3ccco3)cc21 (stereo not given),AC50,[1],"20 µM [falling, single point]"
Cc1ccc(NC(=O)CSc2nc3c(c(=O)[nH]2)CCC3)cc1Cl,AC50,[1],"10 µM [falling, partial curve]"
COc1ccc(NC(=O)c2oc3ccccc3c2NC(=O)c2ccco2)cc1,AC50,[1],"5.01 µM [falling, partial curve]"
Cc1nc2cccc(C(=O)NCc3ccccc3)c2o1,AC50,[1],"1.26 µM [falling, full curve]"
CCn1c(COc2cccc(C)c2)nc2ccccc21,AC50,[1],"1.58 µM [rising, partial curve]"
O=S(=O)(c1ccc(Br)cc1)c1nc(-c2cccs2)oc1SCc1ccc(F)cc1,AC50,[1],"6.31 µM [falling, single point]"
Cc1ccc(-c2nc(CN(C)C)cc(CN(C)C)c2O)cc1,AC50,[1],"10 µM [falling, partial curve]"
O=C(CC1Oc2ccccc2NC1=O)NCCCN1CCCC1=O (stereo not given),AC50,[1],"10 µM [falling, partial curve]"
Cc1ccc(C)c(N2CCN(C(=O)C3CCN(C(=O)c4cc5sccc5n4C)CC3)CC2)c1,AC50,[1],"20 µM [falling, partial curve]"

# An excerpt from further up:
compound,measurement,setting,value
O=S(=O)(c1ccc(Br)cc1)c1nc(-c2cccs2)oc1SCc1ccc(F)cc1,AC50,[1],"6.31 µM [falling, single point]"
Cc1ccc(-c2nc(CN(C)C)cc(CN(C)C)c2O)cc1,AC50,[1],"10 µM [falling, partial curve]"
O=C(CC1Oc2ccccc2NC1=O)NCCCN1CCCC1=O (stereo not given),AC50,[1],"10 µM [falling, partial curve]"

# Retrieved one by one from the list above, 2 records:
compound,measurement,setting,value
Cc1nc2cccc(C(=O)NCc3ccccc3)c2o1,AC50,[1],"1.26 µM [falling, full curve]"
CNC(=O)C1CCC(Cn2c(=O)c3sccc3n(CC(=O)NCc3ccc(C)cc3)c2=O)CC1 (stereo not given),AC50,[1],"7.94 µM [falling, full curve, poor fit]"
